Data published in PubChem BioAssay (EPA / NIEHS).
Most of the hits are listed elsewhere, so they are rarer here than in the full data. Inconclusive results are not listed. The source made the active and inactive calls. The calls were made as follows: active = hit-call score of the fitted dose curve at least 0.9, where 1 is the maximum; inconclusive = response in the unintended direction; inactive = score below 0.9.

assay: TOX21_TRB_BLA_Antagonist_Followup_viability: Viability Assessment in the Tox21 Thyroid Hormone Receptor beta Antagonism Beta-lactamase (BLA) Follow-Up Assay (AID 2283961)
Summary of the method: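 In the same wells as the reporter read, cell health was gauged by CellTiter-Glo ATP luminescence, with signal loss indicating reduced viability. Cells had been exposed to test compounds for 18 h.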

Compound	outcome
CC(=O)O[C@@]12CO[C@@H]1C[C@H](O)[C@@]1(C)C(=O)[C@H](O)C3=C(C)[C@@H](OC(=O)[C@H](O)[C@@H](NC(=O)OC(C)(C)C)c4ccccc4)C[C@@](O)([C@@H](OC(=O)c4ccccc4)[C@H]21)C3(C)C	inactive
CCCCCCC[N+](CC)(CC)CCCCc1ccc(Cl)cc1	inactive
COc1cc([C@@H]2c3cc4c(cc3[C@H](O)[C@H]3COC(=O)[C@H]23)OCO4)cc(OC)c1OC	inactive
